Experimental data taken from the supplement of paper PMC11006884.
This is a selection; strong and weak results do not stand in their true shares.

Amino acid sequences for entries named in this document (tags omitted). A change or cut given only in a name is not applied to a line headed by its entry.
UniProt Q6PJT7: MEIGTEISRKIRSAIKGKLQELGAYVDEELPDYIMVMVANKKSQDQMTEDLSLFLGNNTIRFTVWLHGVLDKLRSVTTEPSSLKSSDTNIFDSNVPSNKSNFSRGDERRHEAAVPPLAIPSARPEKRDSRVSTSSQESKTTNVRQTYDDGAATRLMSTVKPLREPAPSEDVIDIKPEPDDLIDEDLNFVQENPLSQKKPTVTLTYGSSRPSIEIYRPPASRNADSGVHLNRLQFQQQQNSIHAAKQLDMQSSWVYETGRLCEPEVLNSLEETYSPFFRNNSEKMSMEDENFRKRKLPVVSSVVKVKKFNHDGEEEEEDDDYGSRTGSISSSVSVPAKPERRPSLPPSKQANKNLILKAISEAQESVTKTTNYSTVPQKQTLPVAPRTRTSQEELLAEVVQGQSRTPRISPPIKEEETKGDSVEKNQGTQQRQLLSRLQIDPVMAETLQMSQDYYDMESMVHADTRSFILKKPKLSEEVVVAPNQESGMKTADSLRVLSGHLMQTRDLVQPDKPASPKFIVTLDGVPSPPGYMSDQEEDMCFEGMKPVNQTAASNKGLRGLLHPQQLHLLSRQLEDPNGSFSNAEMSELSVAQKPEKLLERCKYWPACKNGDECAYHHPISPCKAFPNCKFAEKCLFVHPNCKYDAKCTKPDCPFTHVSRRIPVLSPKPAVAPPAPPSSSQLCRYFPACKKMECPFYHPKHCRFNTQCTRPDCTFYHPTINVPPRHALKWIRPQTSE
UniProt Q5T6F2: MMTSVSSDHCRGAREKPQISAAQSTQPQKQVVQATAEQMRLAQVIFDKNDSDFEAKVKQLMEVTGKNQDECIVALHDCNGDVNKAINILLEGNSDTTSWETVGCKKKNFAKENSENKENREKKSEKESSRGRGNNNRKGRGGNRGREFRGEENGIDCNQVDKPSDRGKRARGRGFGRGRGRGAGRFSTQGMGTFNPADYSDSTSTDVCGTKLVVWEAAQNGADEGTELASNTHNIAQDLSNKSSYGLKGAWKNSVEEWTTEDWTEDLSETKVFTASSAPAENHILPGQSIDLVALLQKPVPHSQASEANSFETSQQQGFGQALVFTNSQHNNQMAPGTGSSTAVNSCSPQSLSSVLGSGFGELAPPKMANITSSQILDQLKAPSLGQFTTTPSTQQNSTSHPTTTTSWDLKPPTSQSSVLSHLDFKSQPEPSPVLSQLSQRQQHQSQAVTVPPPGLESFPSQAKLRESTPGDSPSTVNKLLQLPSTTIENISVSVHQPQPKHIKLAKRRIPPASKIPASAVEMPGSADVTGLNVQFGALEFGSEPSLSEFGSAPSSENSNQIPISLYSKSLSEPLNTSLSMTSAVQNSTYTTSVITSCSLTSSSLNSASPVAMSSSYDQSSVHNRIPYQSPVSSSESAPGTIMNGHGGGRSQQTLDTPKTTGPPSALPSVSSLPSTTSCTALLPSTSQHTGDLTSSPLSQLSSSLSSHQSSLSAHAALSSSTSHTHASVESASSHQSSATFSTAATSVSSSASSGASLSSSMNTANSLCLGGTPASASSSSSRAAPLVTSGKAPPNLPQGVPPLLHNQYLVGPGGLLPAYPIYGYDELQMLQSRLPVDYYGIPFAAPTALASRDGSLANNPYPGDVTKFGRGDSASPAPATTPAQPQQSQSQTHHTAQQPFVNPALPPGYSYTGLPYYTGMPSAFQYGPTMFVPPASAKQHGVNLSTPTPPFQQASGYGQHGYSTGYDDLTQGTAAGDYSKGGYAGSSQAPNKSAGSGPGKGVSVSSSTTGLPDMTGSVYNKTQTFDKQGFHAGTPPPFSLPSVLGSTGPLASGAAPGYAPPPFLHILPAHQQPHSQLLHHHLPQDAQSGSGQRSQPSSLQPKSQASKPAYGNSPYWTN
UniProt Q6NXT1: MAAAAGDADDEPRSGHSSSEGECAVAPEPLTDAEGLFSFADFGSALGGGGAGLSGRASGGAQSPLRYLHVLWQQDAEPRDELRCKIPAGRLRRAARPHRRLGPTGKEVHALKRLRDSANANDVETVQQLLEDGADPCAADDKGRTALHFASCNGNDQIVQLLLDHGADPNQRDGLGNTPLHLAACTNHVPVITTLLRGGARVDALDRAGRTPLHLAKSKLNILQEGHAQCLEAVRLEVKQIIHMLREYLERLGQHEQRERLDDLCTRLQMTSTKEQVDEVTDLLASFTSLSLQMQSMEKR
UniProt Q5JTZ9, whole entry, looked up: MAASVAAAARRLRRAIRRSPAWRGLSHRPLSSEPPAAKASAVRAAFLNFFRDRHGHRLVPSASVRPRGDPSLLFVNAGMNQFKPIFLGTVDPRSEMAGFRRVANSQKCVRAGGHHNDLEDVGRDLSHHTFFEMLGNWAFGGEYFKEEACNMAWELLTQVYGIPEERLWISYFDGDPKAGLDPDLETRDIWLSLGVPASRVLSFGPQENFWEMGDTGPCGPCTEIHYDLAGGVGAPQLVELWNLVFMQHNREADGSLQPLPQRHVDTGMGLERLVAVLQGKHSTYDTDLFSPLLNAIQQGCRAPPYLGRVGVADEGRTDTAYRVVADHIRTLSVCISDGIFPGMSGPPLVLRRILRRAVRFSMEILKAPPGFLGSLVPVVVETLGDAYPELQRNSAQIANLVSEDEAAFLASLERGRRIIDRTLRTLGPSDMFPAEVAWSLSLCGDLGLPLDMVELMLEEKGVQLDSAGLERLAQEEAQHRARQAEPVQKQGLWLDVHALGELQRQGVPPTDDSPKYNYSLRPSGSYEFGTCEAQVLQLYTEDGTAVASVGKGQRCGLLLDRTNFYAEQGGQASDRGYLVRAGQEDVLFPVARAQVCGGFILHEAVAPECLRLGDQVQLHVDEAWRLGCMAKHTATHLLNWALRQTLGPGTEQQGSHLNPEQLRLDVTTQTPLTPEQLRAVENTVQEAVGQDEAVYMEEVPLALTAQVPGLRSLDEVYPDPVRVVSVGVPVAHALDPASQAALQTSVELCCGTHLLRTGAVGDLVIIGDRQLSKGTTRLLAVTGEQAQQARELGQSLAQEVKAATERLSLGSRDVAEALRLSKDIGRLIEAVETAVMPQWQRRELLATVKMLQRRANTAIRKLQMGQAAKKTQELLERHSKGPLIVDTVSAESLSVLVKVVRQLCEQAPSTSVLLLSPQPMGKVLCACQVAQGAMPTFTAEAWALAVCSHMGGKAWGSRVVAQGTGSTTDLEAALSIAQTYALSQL
UniProt Q6PL18: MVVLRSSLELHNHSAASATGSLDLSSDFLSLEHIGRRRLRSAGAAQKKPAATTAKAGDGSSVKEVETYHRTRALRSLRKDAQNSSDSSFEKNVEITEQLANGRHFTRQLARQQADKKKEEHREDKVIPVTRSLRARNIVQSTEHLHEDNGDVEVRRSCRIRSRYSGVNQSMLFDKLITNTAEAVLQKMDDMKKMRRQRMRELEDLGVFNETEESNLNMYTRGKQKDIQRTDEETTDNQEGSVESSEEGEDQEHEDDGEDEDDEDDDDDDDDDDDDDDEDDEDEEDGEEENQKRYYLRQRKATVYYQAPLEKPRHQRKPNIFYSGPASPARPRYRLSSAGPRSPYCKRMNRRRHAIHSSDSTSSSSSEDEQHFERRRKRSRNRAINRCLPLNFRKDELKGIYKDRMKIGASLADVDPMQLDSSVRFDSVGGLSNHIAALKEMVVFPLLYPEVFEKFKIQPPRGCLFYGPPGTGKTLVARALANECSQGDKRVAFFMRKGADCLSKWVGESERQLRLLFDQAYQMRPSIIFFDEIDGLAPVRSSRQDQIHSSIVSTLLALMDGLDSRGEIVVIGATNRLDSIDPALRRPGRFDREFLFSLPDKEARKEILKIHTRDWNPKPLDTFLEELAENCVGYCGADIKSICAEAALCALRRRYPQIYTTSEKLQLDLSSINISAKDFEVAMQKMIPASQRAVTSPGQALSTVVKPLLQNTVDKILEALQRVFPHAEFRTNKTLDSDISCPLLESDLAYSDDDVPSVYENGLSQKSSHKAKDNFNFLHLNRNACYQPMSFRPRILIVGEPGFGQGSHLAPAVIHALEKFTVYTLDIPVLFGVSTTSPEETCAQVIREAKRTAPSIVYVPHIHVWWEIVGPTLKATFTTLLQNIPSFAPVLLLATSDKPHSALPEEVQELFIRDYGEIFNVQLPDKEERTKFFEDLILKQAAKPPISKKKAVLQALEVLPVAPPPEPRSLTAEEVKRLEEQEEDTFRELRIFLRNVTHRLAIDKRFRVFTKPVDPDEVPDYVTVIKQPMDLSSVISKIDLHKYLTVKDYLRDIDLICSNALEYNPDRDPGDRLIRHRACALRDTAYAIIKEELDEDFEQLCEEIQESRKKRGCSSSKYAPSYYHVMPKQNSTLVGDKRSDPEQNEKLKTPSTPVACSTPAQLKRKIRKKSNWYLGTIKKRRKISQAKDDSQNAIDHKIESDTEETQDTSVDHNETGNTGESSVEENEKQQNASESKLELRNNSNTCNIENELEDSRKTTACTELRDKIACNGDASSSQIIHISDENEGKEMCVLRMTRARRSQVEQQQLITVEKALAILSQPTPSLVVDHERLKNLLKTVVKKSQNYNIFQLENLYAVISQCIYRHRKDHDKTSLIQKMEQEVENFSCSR
UniProt Q66K74: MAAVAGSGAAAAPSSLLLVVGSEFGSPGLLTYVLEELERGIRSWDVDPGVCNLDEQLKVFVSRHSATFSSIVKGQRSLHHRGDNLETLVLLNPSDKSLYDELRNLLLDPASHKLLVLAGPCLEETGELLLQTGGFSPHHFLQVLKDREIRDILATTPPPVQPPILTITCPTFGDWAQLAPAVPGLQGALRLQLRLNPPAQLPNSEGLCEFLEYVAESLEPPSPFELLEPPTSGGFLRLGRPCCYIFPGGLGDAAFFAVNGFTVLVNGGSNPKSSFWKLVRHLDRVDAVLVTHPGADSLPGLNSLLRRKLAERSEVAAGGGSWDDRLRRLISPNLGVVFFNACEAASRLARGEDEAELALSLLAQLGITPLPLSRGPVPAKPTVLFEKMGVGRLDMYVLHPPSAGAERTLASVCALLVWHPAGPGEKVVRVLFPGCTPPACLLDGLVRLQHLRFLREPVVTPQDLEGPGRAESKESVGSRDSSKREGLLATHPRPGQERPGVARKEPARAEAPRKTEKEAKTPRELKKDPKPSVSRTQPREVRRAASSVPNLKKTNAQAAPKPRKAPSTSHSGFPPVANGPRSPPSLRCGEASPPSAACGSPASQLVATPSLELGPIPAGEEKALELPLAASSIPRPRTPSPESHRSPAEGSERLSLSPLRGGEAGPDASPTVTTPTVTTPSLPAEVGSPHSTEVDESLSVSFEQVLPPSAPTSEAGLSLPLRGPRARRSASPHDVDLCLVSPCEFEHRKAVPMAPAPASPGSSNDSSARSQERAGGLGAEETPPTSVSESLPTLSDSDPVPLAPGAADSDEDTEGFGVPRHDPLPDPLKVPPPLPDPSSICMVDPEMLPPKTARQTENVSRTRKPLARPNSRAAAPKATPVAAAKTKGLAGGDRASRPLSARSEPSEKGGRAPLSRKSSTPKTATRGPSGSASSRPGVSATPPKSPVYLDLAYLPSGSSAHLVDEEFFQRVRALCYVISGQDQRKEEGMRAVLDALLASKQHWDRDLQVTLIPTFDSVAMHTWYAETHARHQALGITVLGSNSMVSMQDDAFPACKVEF
UniProt Q6P4I2: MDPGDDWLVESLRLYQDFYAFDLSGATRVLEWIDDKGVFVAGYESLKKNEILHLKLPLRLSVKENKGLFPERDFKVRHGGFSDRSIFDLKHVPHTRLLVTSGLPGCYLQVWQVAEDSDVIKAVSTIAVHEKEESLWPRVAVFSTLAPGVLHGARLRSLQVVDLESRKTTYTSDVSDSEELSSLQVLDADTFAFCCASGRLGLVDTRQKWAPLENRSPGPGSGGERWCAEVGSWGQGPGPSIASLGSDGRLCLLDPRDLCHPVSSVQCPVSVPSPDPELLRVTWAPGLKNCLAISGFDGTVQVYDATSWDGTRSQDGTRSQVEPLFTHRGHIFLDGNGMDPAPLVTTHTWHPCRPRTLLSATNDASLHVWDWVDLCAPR
UniProt Q5QJ74: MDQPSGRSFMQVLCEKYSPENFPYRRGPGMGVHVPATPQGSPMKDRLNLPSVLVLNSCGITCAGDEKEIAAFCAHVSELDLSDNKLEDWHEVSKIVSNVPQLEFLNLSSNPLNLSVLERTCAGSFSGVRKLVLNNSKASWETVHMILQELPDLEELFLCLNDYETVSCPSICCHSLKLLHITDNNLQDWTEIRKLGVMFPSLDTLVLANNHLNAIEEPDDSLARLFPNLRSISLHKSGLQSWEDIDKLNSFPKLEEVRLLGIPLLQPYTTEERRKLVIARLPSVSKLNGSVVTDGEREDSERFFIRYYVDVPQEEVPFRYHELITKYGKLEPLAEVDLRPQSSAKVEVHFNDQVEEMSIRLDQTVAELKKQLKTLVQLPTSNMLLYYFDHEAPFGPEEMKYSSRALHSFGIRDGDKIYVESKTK

Compound: COC(=O)C#Cc1ccccc1 [methyl 3-phenylpropiolate]
Test: log2 ratio of iodoacetamide-alkyne labeling of the cysteine site, DMSO over compound (competition); higher = stronger covalent engagement of the cysteine by the compound, active = 1 or more
Conditions: 500 µM; treatment time 1 h; system: HEK293T cell lysate
How it was run: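 Electrophile (500 µM) or vehicle was added to HEK293T lysate (2 mg/mL) for 1 h at ambient temperature before iodoacetamide alkyne labelling (1 h) and click coupling to sCIP-TMT reagents. After pooling, overnight trypsin digestion at 37 °C, streptavidin enrichment and acid elution, peptides were measured by Orbitrap Eclipse LC-MS/MS with FAIMS and quantified in FragPipe. Each cysteine's log2 competition ratio compares mean control-channel with mean compound-channel reporter intensity, control over compound. Data came from duplicate channels across three replicates, excluding cysteines quantified in only one replicate.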

| Target | log2 ratio of iodoacetamide-alkyne labeling |
| --- | --- |
| DUS1L C213 (UniProt Q6P1R4) | inactive: 0.157 |
| CEP350 C179 (UniProt Q5VT06) | inactive: 0.791 |
| HERC4 C60 (UniProt Q5GLZ8) | inactive: 0.254 |
| PRPF8 C435 (UniProt Q6P2Q9) | active: 1.24 |
| ZC3H14 C622 (UniProt Q6PJT7) | inactive: -0.0943 |
| UBAP2 C208 (UniProt Q5T6F2) | inactive: 0.387 |
| UniProt Q5UCC4_C49 | inactive: 0.246 |
| KANK2 C249 (UniProt Q63ZY3) | inactive: 0.559 |
| NHSL1 C729 (UniProt Q5SYE7) | inactive: 0.695 |
| ANKRD54 C137 (UniProt Q6NXT1) | inactive: 0.138 |
| AARS2 C609 (UniProt Q5JTZ9) | inactive: 0.271 |
| ZNF770 C369 (UniProt Q6IQ21) | inactive: 0.619 |
| SNAP47 C369 (UniProt Q5SQN1) | inactive: 0.693 |
| EDC4 C54 (UniProt Q6P2E9) | inactive: 0.498 |
| CEP135 C316 (UniProt Q66GS9) | inactive: 0.0231 |
| UniProt Q6IQ49_C415 | inactive: 0.108 |
| ATAD2 C631 (UniProt Q6PL18) | inactive: 0.934 |
| MAP1S C440 (UniProt Q66K74) | inactive: -0.0398 |
| TWF2 C141 (UniProt Q6IBS0) | inactive: 0.0464 |
| PITRM1 C313 (UniProt Q5JRX3) | inactive: 0.195 |
| CAMSAP1 C1379 (UniProt Q5T5Y3) | active: 1.45 |
| EXOSC6 C117 (UniProt Q5RKV6) | inactive: 0.37 |
| UniProt Q63HN8_C3609 | inactive: 0.17 |

2 entries picked at random from those above, as already listed:

| Target | log2 ratio of iodoacetamide-alkyne labeling |
| --- | --- |
| ATAD2 C631 (UniProt Q6PL18) | inactive: 0.934 |
| CEP135 C316 (UniProt Q66GS9) | inactive: 0.0231 |

Later entries

| Target | log2 ratio of iodoacetamide-alkyne labeling |
| --- | --- |
| DARS2 C371 (UniProt Q6PI48) | inactive: 0.442 |
| UniProt Q5H9L4_C158 | active: 1.09 |
| RPRD2 C1071 (UniProt Q5VT52) | inactive: -0.00937 |
| SH3PXD2A C384 (UniProt Q5TCZ1) | inactive: 0.443 |
| DARS2 C590 (UniProt Q6PI48) | inactive: 0.208 |
| UniProt Q58WW2_C593 | inactive: 0.295 |
| GIGYF2 C938 (UniProt Q6Y7W6) | inactive: 0.268 |
| RIF1 C1692 (UniProt Q5UIP0) | inactive: 0.681 |
| UniProt Q5VSL9_C418 | active: 1.22 |
| SAMD4B C226 (UniProt Q5PRF9) | inactive: 0.308 |
| DNAJC14 C537 (UniProt Q6Y2X3) | inactive: 0.496 |
| UniProt Q5FWF4_C811 | inactive: -0.337 |
| ATPAF1 C121 (UniProt Q5TC12) | inactive: 0.192 |
| UniProt Q6ZNW5_C64 | inactive: 0.0733 |
| WDR73 C106 (UniProt Q6P4I2) | inactive: 0.112 |
| UniProt Q6P1J9_C397 | inactive: 0.0744 |
| MTHFD1L C828 (UniProt Q6UB35) | inactive: -0.0518 |
| NT5DC1 C63 (UniProt Q5TFE4) | inactive: 0.408 |
| ATAD2 C463 (UniProt Q6PL18) | inactive: 0.354 |
| AARS2 C750 (UniProt Q5JTZ9) | inactive: 0.846 |
| ANKRD40 C209 (UniProt Q6AI12) | inactive: 0.466 |
| ANKRD54 C23 (UniProt Q6NXT1) | inactive: 0.399 |
| CDKAL1 C538 (UniProt Q5VV42) | inactive: 0.579 |

Single values from above.
Value for NHSL1 C729 (UniProt Q5SYE7) under log2 ratio of iodoacetamide-alkyne labeling: inactive: 0.695
Value for WDR73 C106 (UniProt Q6P4I2) under log2 ratio of iodoacetamide-alkyne labeling: inactive: 0.112
Value for CDKAL1 C538 (UniProt Q5VV42) under log2 ratio of iodoacetamide-alkyne labeling: inactive: 0.579
Value for MAP1S C440 (UniProt Q66K74) under log2 ratio of iodoacetamide-alkyne labeling: inactive: -0.0398

Following part.

| Target | log2 ratio of iodoacetamide-alkyne labeling |
| --- | --- |
| MARC1 C273 (UniProt Q5VT66) | inactive: 0.102 |
| UBAP2 C104 (UniProt Q5T6F2) | inactive: 0.602 |
| DNAJC21 C444 (UniProt Q5F1R6) | inactive: 0.145 |
| WDR73 C375 (UniProt Q6P4I2) | inactive: 0.0504 |
| RAB11FIP1 C1192 (UniProt Q6WKZ4) | inactive: 0.324 |
| RNF123 C1180 (UniProt Q5XPI4) | inactive: 0.428 |
| DENND4C C955 (UniProt Q5VZ89) | inactive: 0.32 |
| RPRD2 C903 (UniProt Q5VT52) | inactive: 0.34 |
| ACBD5 C170 (UniProt Q5T8D3) | inactive: 0.29 |
| WDR73 C259 (UniProt Q6P4I2) | inactive: 0.0163 |
| UniProt Q6ZS17_C1137 | inactive: 0.0366 |
| ZNF326 C12 (UniProt Q5BKZ1) | inactive: 0.582 |
| TMEM201 C626 (UniProt Q5SNT2) | inactive: 0.697 |
| ZC3H14 C712 (UniProt Q6PJT7) | inactive: -0.0936 |
| WDR73 C352 (UniProt Q6P4I2) | inactive: -0.0916 |
| ZMYM4 C1499 (UniProt Q5VZL5) | inactive: 0.221 |
| UBR4 C1450 (UniProt Q5T4S7) | inactive: 0.138 |
| HEATR6 C360 (UniProt Q6AI08) | inactive: 0.657 |
| UniProt Q5JSZ5_C1610 | inactive: 0.32 |
| FAM199X C235 (UniProt Q6PEV8) | inactive: 0.0217 |
| CEP170 C212 (UniProt Q5SW79) | inactive: 0.521 |
| ATAD2 C635 (UniProt Q6PL18) | inactive: 0.934 |
| UniProt Q69YN4_C353 | inactive: 0.312 |

| Target | log2 ratio of iodoacetamide-alkyne labeling |
| --- | --- |
| MAP1S C841 (UniProt Q66K74) | inactive: 0.464 |
| UniProt Q6PIY7_C167 | inactive: -0.0469 |
| HSDL2 C218 (UniProt Q6YN16) | inactive: 0.323 |
| RSBN1L C280 (UniProt Q6PCB5) | inactive: 0.649 |
| FNBP1L C69 (UniProt Q5T0N5) | inactive: 0.181 |
| NUP188 C95 (UniProt Q5SRE5) | inactive: -0.0589 |
| RRP12 C102 (UniProt Q5JTH9) | inactive: 0.419 |
| LARP1 C953 (UniProt Q6PKG0) | inactive: -0.0257 |
| CEP78 C653 (UniProt Q5JTW2) | inactive: 0.338 |
| UniProt Q6P2H3_C527 | inactive: -0.0686 |
| SHQ1 C572 (UniProt Q6PI26) | inactive: 0.26 |
| LARP1 C864 (UniProt Q6PKG0) | inactive: 0.428 |
| RIF1 C1077 (UniProt Q5UIP0) | inactive: 0.458 |
| UniProt Q5JTC6_C1060 | inactive: 0.46 |
| EDC4 C81 (UniProt Q6P2E9) | inactive: 0.664 |
| MIA3 C1513 (UniProt Q5JRA6) | inactive: 0.31 |
| UniProt Q5T8A7_C245 | inactive: -0.153 |
| CC2D1A C252 (UniProt Q6P1N0) | inactive: 0.427 |
| ZNF318 C1559 (UniProt Q5VUA4) | inactive: 0.605 |
| UniProt Q5VSL9_C769 | inactive: 0.622 |
| FKBP15 C1031 (UniProt Q5T1M5) | inactive: 0.273 |
| HSDL2 C11 (UniProt Q6YN16) | inactive: 0.0294 |
| ANKRD54 C185 (UniProt Q6NXT1) | inactive: 0.189 |

| Target | log2 ratio of iodoacetamide-alkyne labeling |
| --- | --- |
| ARMC6 C297 (UniProt Q6NXE6) | inactive: 0.0207 |
| AARS2 C300 (UniProt Q5JTZ9) | inactive: 0.178 |
| RRP12 C261 (UniProt Q5JTH9) | inactive: 0.53 |
| TMEM214 C392 (UniProt Q6NUQ4) | inactive: 0.0314 |
| NUP188 C1294 (UniProt Q5SRE5) | inactive: 0.463 |
| TBCEL C121 (UniProt Q5QJ74) | inactive: 0.0663 |
| ATAD3B C616 (UniProt Q5T9A4) | inactive: 0.463 |
| MTHFD1L C291 (UniProt Q6UB35) | inactive: 0.126 |
| UniProt Q6PJG6_C487 | inactive: 0.394 |
| SPTY2D1 C433 (UniProt Q68D10) | inactive: 0.206 |
| DENND4C C1105 (UniProt Q5VZ89) | inactive: 0.64 |
| DHX57 C65 (UniProt Q6P158) | inactive: 0.72 |
| UniProt Q5W0B1_C321 | inactive: 0.63 |
| RABL3 C180 (UniProt Q5HYI8) | inactive: 0.17 |
| TJAP1 C76 (UniProt Q5JTD0) | inactive: 0.625 |
| ALKBH5 C267 (UniProt Q6P6C2) | inactive: 0.444 |
| UniProt Q5TAX3_C776 | inactive: 0.631 |
| FAM117B C244 (UniProt Q6P1L5) | inactive: 0.571 |
| YOD1 C97 (UniProt Q5VVQ6) | inactive: 0.146 |
